Assay results taken from the supplement of paper PMC4604168 (melanoma cell lines).
The list shows a part of the results. Single values are uncertain, as repeats are few or missing.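 Cells were imaged in 1,536-well plates, and nuclei stained with an antibody against cleaved PARP were counted against all DNA-stained nuclei to give the apoptosis fraction. Screening doses were chosen to leave most cells alive, and resting and induced cleaved-PARP levels differ strongly between cell lines.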

How the values were obtained:
Test in all cases: cleaved PARP positive nuclei fraction relative to DMSO control; melanoma cells; higher = more apoptosis
Details in all cases: library dose: low library concentration; 72 h
[1] = system: 501Mel
[2] = system: A101D
[3] = system: A2058
[4] = system: A375
[5] = system: C32
[6] = system: CBRC008 (line from a melanoma biopsy)
[7] = system: CBRC013 (line from a melanoma biopsy)
[8] = system: CBRC014 (line from a melanoma biopsy)
[9] = system: CBRC016 (line from a melanoma biopsy)
[10] = system: CBRC017 (line from a melanoma biopsy)
[11] = system: COLO792
[12] = system: COLO800
[13] = system: COLO829
[14] = system: G361
[15] = system: IPC-298
[16] = system: IST-MEL1
[17] = system: LB2518-MEL
[18] = system: LOXIMVI
[19] = system: MEL-HO

| Compound | cleaved PARP positive nuclei fraction [1] [%] | cleaved PARP positive nuclei fraction [2] [%] | cleaved PARP positive nuclei fraction [3] [%] | cleaved PARP positive nuclei fraction [4] [%] | cleaved PARP positive nuclei fraction [5] [%] | cleaved PARP positive nuclei fraction [6] [%] | cleaved PARP positive nuclei fraction [7] [%] | cleaved PARP positive nuclei fraction [8] [%] | cleaved PARP positive nuclei fraction [9] [%] | cleaved PARP positive nuclei fraction [10] [%] | cleaved PARP positive nuclei fraction [11] [%] | cleaved PARP positive nuclei fraction [12] [%] | cleaved PARP positive nuclei fraction [13] [%] | cleaved PARP positive nuclei fraction [14] [%] | cleaved PARP positive nuclei fraction [15] [%] | cleaved PARP positive nuclei fraction [16] [%] | cleaved PARP positive nuclei fraction [17] [%] | cleaved PARP positive nuclei fraction [18] [%] | cleaved PARP positive nuclei fraction [19] [%] |
| --- | --- | --- | --- | --- | --- | --- | --- | --- | --- | --- | --- | --- | --- | --- | --- | --- | --- | --- | --- |
| Cc1nc(Nc2ncc(C(=O)Nc3c(C)cccc3Cl)s2)cc(N2CCN(CCO)CC2)n1 [dasatanib] + O=C(O)c1ccc(-c2c[nH]c3ncc(-c4ccccc4)cc23)cc1C1CCCC1 [GSK650394] (first compound 0.004 µM, partner dose 0.16 µM) | 94.7 | 123 | 160 | 120 | 222 | 416 | 112 | 157 | 280 | 116 | 102 | 55 | 143 | 92.8 | 89.6 | 62.4 | 267 | 153 | 77.2 |
| C[C@@H]1CCN(C(=O)CC#N)C[C@@H]1N(C)c1ncnc2[nH]ccc12 + Cn1cncc1[C@@](N)(c1ccc(Cl)cc1)c1ccc2c(c1)c(-c1cccc(Cl)c1)cc(=O)n2C [tipifarnib] (first compound 1 µM, partner dose 0.01 µM) | 241 | 78.8 | 68 | 96.5 | 47.7 | 215 | 144 | 85.1 | 195 | 102 | 108 | 73.5 | 81.6 | 95.7 | 50.4 | 46.4 | 92.4 | 46.8 | 60.3 |
| CC1(C)NC(=O)N(c2ccc([N+](=O)[O-])c(C(F)(F)F)c2)C1=O [nilutamide] + O=C(O)c1ccc(-c2c[nH]c3ncc(-c4ccccc4)cc23)cc1C1CCCC1 [GSK650394] (first compound 1 µM, partner dose 0.16 µM) | 86.9 | 117 | 117 | 137 | 97.5 | 564 | 102 | 105 | 152 | 110 | 50 | 148 | 183 | 141 | 144 | 61.7 | 118 | 48.6 | 53.8 |
| C[C@@H]1CCN(C(=O)CC#N)C[C@@H]1N(C)c1ncnc2[nH]ccc12 + NCC(=O)Nc1ccc(-n2nc(C(F)(F)F)cc2-c2ccc3c(ccc4ccccc43)c2)cc1 [OSU03012] (first compound 1 µM, partner dose 1 µM) | 342 | 75.9 | 60.4 | 5820 | 12.4 | 259 | 152 | 78 | 66 | 86.8 | 98.9 | 40.3 | 88.8 | 214 | 156 | 351 | 171 | 31.4 | 73.1 |
| Clc1ccc(Nc2nnc(Cc3ccncc3)c3ccccc23)cc1 [vatalanib] + NC(=O)Nc1cc(-c2cccc(F)c2)sc1C(=O)N[C@H]1CCCNC1 [AZD7762] (first compound 2 µM, partner dose 0.02 µM) | 94.7 | 211 | 127 | 194 | 70.2 | 173 | 112 | 134 | 140 | 122 | 224 | 97.6 | 106 | 156 | 45.9 | 99.7 | 79.4 | 62.2 | 28.3 |
| CC(=O)c1c(C)c2cnc(Nc3ccc(N4CCNCC4)cn3)nc2n(C2CCCC2)c1=O [palbociclib] + O=C(Nc1cccc(Cl)c1)Nc1ncc(CCNc2ncnc3ccsc23)s1 [SNS314] (first compound 0.04 µM, partner dose 0.0008 µM) | 247 | 99.2 | 43.1 | 201 | 95.5 | 91.3 | 91.9 | 100 | 105 | 84.6 | 88.4 | 79.2 | 44.1 | 76.8 | 55.4 | 24.9 | 58.9 | 123 | 74.6 |
| C#Cc1cccc(Nc2ncnc3cc(OCCOC)c(OCCOC)cc23)c1 [erlotinib] + C[C@@H]1CCN(C(=O)CC#N)C[C@@H]1N(C)c1ncnc2[nH]ccc12 [CP690550] (first compound 0.8 µM, partner dose 1 µM) | 217 | 121 | 128 | 104 | 37 | 157 | 138 | 90.3 | 116 | 89.6 | 118 | 163 | 50.4 | 44.8 | 194 | 90 | 140 | 47.2 | 70.2 |
| CO[C@@H]1[C@H](N(C)C(=O)c2ccccc2)C[C@H]2O[C@]1(C)n1c3ccccc3c3c4c(c5c6ccccc6n2c5c31)C(=O)NC4 [Midostaurin] + NC(=O)Nc1cc(-c2cccc(F)c2)sc1C(=O)N[C@H]1CCCNC1 [AZD7762] (first compound 0.08 µM, partner dose 0.02 µM) | 79.3 | 125 | 132 | 740 | 108 | 68.1 | 117 | 124 | 140 | 84.8 | 171 | 87.6 | 69 | 86.2 | 99.6 | 30.1 | 78.1 | 118 | 226 |
| CO[C@@H]1[C@H](N(C)C(=O)c2ccccc2)C[C@H]2O[C@]1(C)n1c3ccccc3c3c4c(c5c6ccccc6n2c5c31)C(=O)NC4 [Midostaurin] + CN(C)S(=O)(=O)c1ccc2c(c1)/C(=C/c1cc3c([nH]1)CCCC3)C(=O)N2 [SU6656] (first compound 0.08 µM, partner dose 0.4 µM) | 92.3 | 102 | 113 | 455 | 166 | 235 | 116 | 125 | 163 | 108 | 128 | 125 | 72.1 | 99.1 | 99.8 | 101 | 50.3 | 38.3 | 129 |
| CC(=O)c1c(C)c2cnc(Nc3ccc(N4CCNCC4)cn3)nc2n(C2CCCC2)c1=O [palbociclib] + O=C(O)c1ccc(-c2c[nH]c3ncc(-c4ccccc4)cc23)cc1C1CCCC1 [GSK650394] (first compound 0.04 µM, partner dose 0.16 µM) | 126 | 194 | 65.8 | 153 | 81.8 | 225 | 96 | 106 | 171 | 127 | 48.4 | 89.1 | 51.4 | 61.8 | 110 | 120 | 229 | 166 | 152 |
| Nc1cccc2c1CN(C1CCC(=O)NC1=O)C2=O (stereo not drawn) [lenalidomide] + NCC(=O)Nc1ccc(-n2nc(C(F)(F)F)cc2-c2ccc3c(ccc4ccccc43)c2)cc1 [OSU03012] (first compound 1 µM, partner dose 1 µM) | 228 | 77.6 | 146 | 1830 | 180 | 137 | 96.8 | 75.8 | 173 | 107 | 112 | 55.3 | 200 | 124 | 51.6 | 206 | 93.2 | 131 | 112 |
| C[C@@H]1CCN(C(=O)CC#N)C[C@@H]1N(C)c1ncnc2[nH]ccc12 + COc1cc2c(Oc3ccc4[nH]c(C)cc4c3F)ncnc2cc1OCCCN1CCCC1 [cediranib] (first compound 1 µM, partner dose 0.4 µM) | 116 | 83.2 | 120 | 148 | 29.3 | 204 | 94.3 | 86.3 | 117 | 87.2 | 72.3 | 132 | 277 | 43.1 | 48.1 | 68.8 | 89.6 | 26.4 | 38.1 |
| OCc1c[nH]c2ccccc12 [Indole-3-carbinol] + CC1(C)NC(=O)N(c2ccc([N+](=O)[O-])c(C(F)(F)F)c2)C1=O [nilutamide] (first compound 0.8 µM, partner dose 1 µM) | 270 | 79.9 | 87.2 | 34.7 | 86.5 | 86.9 | 176 | 85.6 | 217 | 68.7 | 89 | 96 | 190 | 91.5 | 93 | 149 | 97.7 | 60.8 | 184 |
| Cc1ccc(NC(=O)c2cccc(N(C)C)c2)cc1NC(=O)c1ccc(O)cc1 + CN(C)S(=O)(=O)c1ccc2c(c1)/C(=C/c1cc3c([nH]1)CCCC3)C(=O)N2 [SU6656] (first compound 2 µM, partner dose 0.4 µM) | 86.6 | 219 | 108 | 171 | 264 | 65.2 | 121 | 112 | 103 | 105 | 105 | 55.4 | 83.8 | 93.3 | 73.8 | 106 | 35.3 | 224 | 160 |
| Clc1ccc(Nc2nnc(Cc3ccncc3)c3ccccc23)cc1 [vatalanib] + CC1(C)NC(=O)N(c2ccc([N+](=O)[O-])c(C(F)(F)F)c2)C1=O [nilutamide] (first compound 2 µM, partner dose 1 µM) | 80 | 169 | 82.4 | 131 | 160 | 171 | 102 | 123 | 143 | 250 | 120 | 160 | 101 | 72.6 | 47.7 | 48.8 | 189 | 77.5 | 147 |
| OCc1c[nH]c2ccccc12 [Indole-3-carbinol] + COc1cc2c(Oc3ccc4[nH]c(C)cc4c3F)ncnc2cc1OCCCN1CCCC1 [cediranib] (first compound 0.8 µM, partner dose 0.4 µM) | 104 | 297 | 73.7 | 141 | 76.3 | 98 | 115 | 95.8 | 121 | 78.9 | 87 | 85.7 | 104 | 133 | 97.8 | 48.2 | 55.6 | 122 | 132 |
| CC1(C)NC(=O)N(c2ccc([N+](=O)[O-])c(C(F)(F)F)c2)C1=O [nilutamide] + Cn1cncc1[C@@](N)(c1ccc(Cl)cc1)c1ccc2c(c1)c(-c1cccc(Cl)c1)cc(=O)n2C [tipifarnib] (first compound 1 µM, partner dose 0.01 µM) | 385 | 209 | 120 | 205 | 42.5 | 176 | 98.3 | 94 | 51.3 | 110 | 138 | 43 | 99.4 | 103 | 105 | 84.2 | 215 | 49.6 | 137 |

Random excerpt: two records from the list

| Compound | cleaved PARP positive nuclei fraction [1] [%] | cleaved PARP positive nuclei fraction [2] [%] | cleaved PARP positive nuclei fraction [3] [%] | cleaved PARP positive nuclei fraction [4] [%] | cleaved PARP positive nuclei fraction [5] [%] | cleaved PARP positive nuclei fraction [6] [%] | cleaved PARP positive nuclei fraction [7] [%] | cleaved PARP positive nuclei fraction [8] [%] | cleaved PARP positive nuclei fraction [9] [%] | cleaved PARP positive nuclei fraction [10] [%] | cleaved PARP positive nuclei fraction [11] [%] | cleaved PARP positive nuclei fraction [12] [%] | cleaved PARP positive nuclei fraction [13] [%] | cleaved PARP positive nuclei fraction [14] [%] | cleaved PARP positive nuclei fraction [15] [%] | cleaved PARP positive nuclei fraction [16] [%] | cleaved PARP positive nuclei fraction [17] [%] | cleaved PARP positive nuclei fraction [18] [%] | cleaved PARP positive nuclei fraction [19] [%] |
| --- | --- | --- | --- | --- | --- | --- | --- | --- | --- | --- | --- | --- | --- | --- | --- | --- | --- | --- | --- |
| C#Cc1cccc(Nc2ncnc3cc(OCCOC)c(OCCOC)cc23)c1 [erlotinib] + C[C@@H]1CCN(C(=O)CC#N)C[C@@H]1N(C)c1ncnc2[nH]ccc12 [CP690550] (first compound 0.8 µM, partner dose 1 µM) | 217 | 121 | 128 | 104 | 37 | 157 | 138 | 90.3 | 116 | 89.6 | 118 | 163 | 50.4 | 44.8 | 194 | 90 | 140 | 47.2 | 70.2 |
| CC(=O)c1c(C)c2cnc(Nc3ccc(N4CCNCC4)cn3)nc2n(C2CCCC2)c1=O [palbociclib] + O=C(O)c1ccc(-c2c[nH]c3ncc(-c4ccccc4)cc23)cc1C1CCCC1 [GSK650394] (first compound 0.04 µM, partner dose 0.16 µM) | 126 | 194 | 65.8 | 153 | 81.8 | 225 | 96 | 106 | 171 | 127 | 48.4 | 89.1 | 51.4 | 61.8 | 110 | 120 | 229 | 166 | 152 |
